According to PMC12929097:

Legend:
Assay in all cases: co-IP; 293T cells co-transfected for 48 h; cleared lysates from a 6-well plate incubated with 1 μg of specific antibody and Protein A/G PLUS-Agarose; eluate and input analysed by Western blotting
[1] = biological target: chicken interferon regulatory factor 7 (chIRF7) (chicken)
[2] = biological target: chicken IKKϵ (chIKKϵ) (chicken)
[3] = biological target: chicken TBK1 (chTBK1) (chicken)

Measured: binding

B1: chicken interferon regulatory factor 10 (chIRF10) (protein, UniProt Q90WI0 1-416)
chain: MAEPGSPMRLKEWLIAQIDSGRYPGLRWENRERTLFRIPWKHAAKQDYRQQQDAALFRAWAVYKGKYHEGTDKADPSTWKTRLRCALNKSTDFQEVPERSQLDISEPYKVYQIVCDGTRDAEKDEKEGRMQPTSSKDPQGHVAEESHRGTAGTCHMPTLPLLTAHPAERGYHVRGIFYGWSPTRSHLLPRAPSFLPAEDVNHSDCWLHIRLYYCDVLVKELTTRTAEGCRIASRTEGPYGPSCMEQIEFPPPRALGGGGWTVAVTEVLERLLPHLERGVLLWVAPEGVFMKRQCQGRVYWNGPLAPHQDWPNKLEREKTYKLLDTQQFLEELRRYLSHGQPAPQYQIHLCFGEEYPTSTGRHLQKLIMAHVEPVFARELFHHAQRLGPALLRGCPQPCAPAAPGRIAHVLQQLCQP
binds: [1] | [2] | [3]

These are yes or no findings as the source states them, for the method shown. Binding seen in cells or lysates may run through a third protein. Binding calls can cover weak binding; strength is not graded here.
